# Values of other authors, collected in US6875420B1, “Method of ultrasound imaging” (Amersham Health AS, priority 1991, dated 2005).
# Some entries share one result that the patent states for a list of compounds.
# Details: microbubbles less than about 8 microns in diameter; cited from earlier work
smiles,measurement,value
N#N [Nitrogen],life span of microbubbles,< 0.25 s
